# Results are given in words; binding and its absence hold for the method and conditions named.
# By UniProt entry, the sequences of proteins in these tests, tags left out. Where a name states a change or a piece, a line headed by the entry shows the natural chain unless it says otherwise.
# UniProt Q96SW2: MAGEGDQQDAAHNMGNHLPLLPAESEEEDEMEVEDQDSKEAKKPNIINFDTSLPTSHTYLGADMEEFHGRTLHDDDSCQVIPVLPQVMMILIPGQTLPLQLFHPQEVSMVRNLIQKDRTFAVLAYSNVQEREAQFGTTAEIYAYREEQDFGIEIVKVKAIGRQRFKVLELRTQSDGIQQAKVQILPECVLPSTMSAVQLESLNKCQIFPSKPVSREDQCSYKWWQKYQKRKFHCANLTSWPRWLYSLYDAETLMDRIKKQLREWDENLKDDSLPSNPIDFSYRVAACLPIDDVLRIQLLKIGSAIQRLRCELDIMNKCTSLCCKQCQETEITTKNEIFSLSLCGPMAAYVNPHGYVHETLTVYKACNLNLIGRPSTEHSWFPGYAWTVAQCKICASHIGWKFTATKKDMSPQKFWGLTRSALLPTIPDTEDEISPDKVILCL
# Target: CRBN/DDB1 complex (UniProt Q96SW2)
# Assay: FRET or BRET; TR-FRET displacement: 20 nM CoraFluor-1-labeled CRBN/DDB1 and 200 nM thal-FITC tracer; UROD reaction mixtures (with PCMT1 or PCMT1 S60A, 17.5 h) titrated 1:3; 25 mM HEPES, 150 mM NaCl, 0.5 mg/mL BSA, 0.005% TWEEN 20, pH 7.5; read after 2 h; both purified
binder,measurement,value
"UROD N367A (protein, UniProt P06132 1-367) MEANGLGPQGFPELKNDTFLRAAWGEETDYTPVWCMRQAGRYLPEFRETRAAQDFFSTCRSPEACCELTLQPLRRFPLDAAIIFSDILVVPQALGMEVTMVPGKGPSFPEPLREEQDLERLRDPEVVASELGYVFQAITLTRQRLAGRVPLIGFAGAPWTLMTYMVEGGGSSTMAQAKRWLYQRPQASHQLLRILTDALVPYLVGQVVAGAQALQLFESHAGHLGPQLFNKFALPYIRDVAKQVKARLREAGLAPVPMIIFAKDGHFALEELAQAGYEVVGLDWTVAPKKARECVGKTVTLQGNLDPCALYASEEEIGQLVKQMLDDFGPHRYIANLGHGLYPDMDPEHVGAFVDAVHKHSRLLRQA",binding,no binding

# Reference: publication doi:10.1101/2025.03.24.645063
